Assay results published in the supplement of paper PMC8728848.
The list shows a part of the results.

Tests used:
Test in all cases: glycan array binding signal (z-score within array); higher = stronger binding
Details in all cases: glycan notation: IUPAC condensed, linker removed
Fuc(a1-2)Gal = target: Fuc(a1-2)Gal
Outline: (§1)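 The binding signal is a Z-score computed within each array and averaged over linkers. Arrays of the same protein sequence at different concentrations or buffers were also averaged together. Data originate from 3228 arrays in the Consortium for Functional Glycomics database, kept only where the protein sequence was available.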

Fuc(a1-2)Gal(b1-3)GalNAc = target: Fuc(a1-2)Gal(b1-3)GalNAc
Outline: as §1

[1] = target: Fuc(a1-2)Gal(b1-3)GalNAc(a1-3)[Fuc(a1-2)]Gal(b1-4)Glc
Outline: as §1

[2] = target: Fuc(a1-2)Gal(b1-3)GalNAc(a1-3)[Fuc(a1-2)]Gal(b1-4)GlcNAc
Outline: as §1

[3] = target: Fuc(a1-2)Gal(b1-3)GalNAc(b1-3)Gal
Outline: as §1

[4] = target: Fuc(a1-2)Gal(b1-3)GalNAc(b1-3)Gal(a1-4)Gal(b1-4)Glc
Outline: as §1

[5] = target: Fuc(a1-2)Gal(b1-3)GalNAc(b1-4)[Neu5Ac(a2-3)]Gal(b1-4)Glc
Outline: as §1

Fuc(a1-2)Gal(b1-3)GlcNAc = target: Fuc(a1-2)Gal(b1-3)GlcNAc
Outline: as §1

[6] = target: Fuc(a1-2)Gal(b1-3)GlcNAc(b1-2)Man(a1-3)[Fuc(a1-2)Gal(b1-3)GlcNAc(b1-2)Man(a1-6)]Man(b1-4)GlcNAc(b1-4)GlcNAc
Outline: as §1

[7] = target: Fuc(a1-2)Gal(b1-3)GlcNAc(b1-3)Gal(b1-4)Glc
Outline: as §1

[8] = target: Fuc(a1-2)Gal(b1-3)GlcNAc(b1-3)[Fuc(a1-3)[Gal(b1-4)]GlcNAc(b1-6)]Gal(b1-4)Glc
Outline: as §1

[9] = target: Fuc(a1-2)Gal(b1-3)[Fuc(a1-4)]GlcNAc
Outline: as §1

[10] = target: Fuc(a1-2)Gal(b1-3)[Fuc(a1-4)]GlcNAc(b1-2)Man(a1-3)[Fuc(a1-2)Gal(b1-3)[Fuc(a1-4)]GlcNAc(b1-2)Man(a1-6)]Man(b1-4)GlcNAc(b1-4)GlcNAc
Outline: as §1

[11] = target: Fuc(a1-2)Gal(b1-3)[Fuc(a1-4)]GlcNAc(b1-3)[Fuc(a1-3)[Gal(b1-4)]GlcNAc(b1-6)]Gal(b1-4)Glc
Outline: as §1

[12] = target: Fuc(a1-2)Gal(b1-3)[Fuc(a1-4)]GlcNAc(b1-3)[Gal(b1-4)GlcNAc(b1-6)]Gal(b1-4)Glc
Outline: as §1

Fuc(a1-2)Gal(b1-4)Glc = target: Fuc(a1-2)Gal(b1-4)Glc
Outline: as §1

Fuc(a1-2)Gal(b1-4)Glc6S = target: Fuc(a1-2)Gal(b1-4)Glc6S
Outline: as §1

Fuc(a1-2)Gal(b1-4)GlcNAc = target: Fuc(a1-2)Gal(b1-4)GlcNAc
Outline: as §1

[13] = target: Fuc(a1-2)Gal(b1-4)GlcNAc(b1-2)Man(a1-3)[Fuc(a1-2)Gal(b1-4)GlcNAc(b1-2)Man(a1-6)]Man(b1-4)GlcNAc(b1-4)GlcNAc
Outline: as §1

[14] = target: Fuc(a1-2)Gal(b1-4)GlcNAc(b1-3)Gal(b1-4)GlcNAc
Outline: as §1

[15] = target: Fuc(a1-2)Gal(b1-4)GlcNAc(b1-3)Gal(b1-4)GlcNAc(b1-3)Gal(b1-4)GlcNAc
Outline: as §1

[16] = target: Fuc(a1-2)Gal(b1-4)GlcNAc(b1-3)GalNAc
Outline: as §1

[17] = target: Fuc(a1-2)Gal(b1-4)GlcNAc6S
Outline: as §1

[18] = target: Fuc(a1-2)Gal(b1-4)[Fuc(a1-3)]GlcNAc
Outline: as §1

[19] = target: Fuc(a1-2)Gal(b1-4)[Fuc(a1-3)]GlcNAc(b1-2)Man(a1-3)[Fuc(a1-2)Gal(b1-4)[Fuc(a1-3)]GlcNAc(b1-2)Man(a1-6)]Man(b1-4)GlcNAc(b1-4)GlcNAc
Outline: as §1

[20] = target: Fuc(a1-2)Gal(b1-4)[Fuc(a1-3)]GlcNAc(b1-3)Gal(b1-4)[Fuc(a1-3)]GlcNAc
Outline: as §1

[21] = target: Fuc(a1-2)Gal(b1-4)[Fuc(a1-3)]GlcNAc(b1-3)Gal(b1-4)[Fuc(a1-3)]GlcNAc(b1-3)Gal(b1-4)[Fuc(a1-3)]GlcNAc
Outline: as §1

Fuc(a1-2)Gal6S(b1-4)Glc = target: Fuc(a1-2)Gal6S(b1-4)Glc
Outline: as §1

[22] = target: Fuc(a1-2)Gal6S(b1-4)Glc6S
Outline: as §1

[23] = target: Fuc(a1-2)Gal6S(b1-4)GlcNAc
Outline: as §1

B1: Flo10 (Saccharomyces cerevisiae), P36170 (protein)
chain: MPVAARYIFLTGLFLLSVANVALGTTEACLPAGEKKNGMTINFYQYSLKDSSTYSNPSYMAYGYADAEKLGSVSGQTKLSIDYSIPCNGASDTCACSDDDATEYSASQVVPVKRGVKLCSDNTTLSSKTEKRENDDCDQGAAYWSSDLFGFYTTPTNVTVEMTGYFLPPKTGTYTFGFATVDDSAILSVGGNVAFECCKQEQPPITSTDFTINGIKPWNADAPTDIKGSTYMYAGYYYPIKIVYSNAVSWGTLPVSVVLPDGTEVNDDFEGYVFSFDDNATQAHCSVPNPAEHARTCVSSATSSWSSSEVCTECTETESTSYVTPYVTSSSWSSSEVCTECTETESTSTSTPYVTSSSSSSSEVCTECTETESTSYVTPYVSSSTAAANYTSSFSSSSEVCTECTETESTSTSTPYVTSSSWSSSEVCTECTETESTSYVTPYVSSSTAAANYTSSFSSSSEVCTECTETESTSTSTPYVTSSSSSSSEVCTECTETESTSYVTPYVSSSTAAANYTSSFSSSSEVCTECTETESTSTSTPYVTSSSWSSSEVCTECTETESTSYVTPYVSSSTAAANYTSSFSSSSEVCTECTETESTSTSTPYATSSTGTATSFTASTSNTMTSLVQTDTTVSFSLSSTVSEHTNAPTSSVESNASTFISSNKGSVKSYVTSSIHSITPMYPSNQTVTSSSVVSTPITSESSESSASVTILPSTITSEFKPSTMKTKVVSISSSPTNLITSYDTTSKDSTVGSSTSSVSLISSISLPSSYSASSEQIFHSSIVSSNGQALTSFSSTKVSSSESSESHRTSPTTSSESGIKSSGVEIESTSTSSFSFHETSTASTSVQISSQFVTPSSPISTVAPRSTGLNSQTESTNSSKETMSSENSASVMPSSSATSPKTGKVTSDETSSGFSRDRTTVYRMTSETPSTNEQTTLITVSSCESNSCSNTVSSAVVSTATTTINGITTEYTTWCPLSATELTTVSKLESEEKTTLITVTSCESGVCSETASPAIVSTATATVNDVVTVYSTWSPQATNKLAVSSDIENSASKASFVSEAAETKSISRNNNFVPTSGTTSIETHTTTTSNASENSDNVSASEAVSSKSVTNPVLISVSQQPRGTPASSMIGSSTASLEMSSYLGIANHLLTNSGISIFIASLLLAIV
- glycan array binding signal (z-score) (Fuc(a1-2)Gal): -0.687
- glycan array binding signal (z-score) (Fuc(a1-2)Gal(b1-3)GalNAc): 0.146
- glycan array binding signal (z-score) [1]: -0.704
- glycan array binding signal (z-score) [2]: 0.044
- glycan array binding signal (z-score) [3]: 1.8
- glycan array binding signal (z-score) [4]: -0.532
- glycan array binding signal (z-score) [5]: 0.374
- glycan array binding signal (z-score) (Fuc(a1-2)Gal(b1-3)GlcNAc): -0.227
- glycan array binding signal (z-score) [6]: -0.597
- glycan array binding signal (z-score) [7]: -0.244
- glycan array binding signal (z-score) [8]: 2.09
- glycan array binding signal (z-score) [9]: 1.07
- glycan array binding signal (z-score) [10]: -0.673
- glycan array binding signal (z-score) [11]: -0.579
- glycan array binding signal (z-score) [12]: 0.024
- glycan array binding signal (z-score) (Fuc(a1-2)Gal(b1-4)Glc): -0.758
- glycan array binding signal (z-score) (Fuc(a1-2)Gal(b1-4)Glc6S): 1.91
- glycan array binding signal (z-score) (Fuc(a1-2)Gal(b1-4)GlcNAc): 0.201
- glycan array binding signal (z-score) [13]: -0.333
- glycan array binding signal (z-score) [14]: 0.244
- glycan array binding signal (z-score) [15]: 2.06
- glycan array binding signal (z-score) [16]: -0.457
- glycan array binding signal (z-score) [17]: -0.325
- glycan array binding signal (z-score) [18]: 0.415
- glycan array binding signal (z-score) [19]: -0.165
- glycan array binding signal (z-score) [20]: -0.556
- glycan array binding signal (z-score) [21]: 0.134
- glycan array binding signal (z-score) (Fuc(a1-2)Gal6S(b1-4)Glc): 0.654
- glycan array binding signal (z-score) [22]: -0.28
- glycan array binding signal (z-score) [23]: 0.331
